Laboratory results taken from patent US10723777B2 (CAREGEN CO., LTD., priority 2016, dated 2020).

Key:
[1] = general procedure: peptide synthesis; chlorotrityl chloride resin (CTL resin, Nova biochem Cat No. 01-64-0021); conditions: whole synthesis; for crude yield: scale of the general procedure 700 mg resin
[2] = general procedure: peptide synthesis; CTL resin; conditions: whole synthesis

Substance | crude mass [1] [g] | crude yield [1] [%] | crude mass [2] [g] | crude yield ([2]; scale of the general procedure 700 mg resin) [%]
NH2-Lys-Gly-Ala-Cys(Ser)-Thr-Gly-Trp-Met-Ala-COOH (KGACTGWMA; Peptide 2) | 0.78 | 82 | – | –
NH2-Leu-Lys-Thr-Arg-Asn-COOH | – | – | 0.85 | 92
NH2—Cys(Ser)-Asp-Leu-Arg-Arg-Leu-Glu-Met-Tyr-Cys(Ser)-COOH (ACYLPHPWFC; Peptide 4) | 0.76 | 88 | – | –
NH2-Ala-Cys(Ser)Thr-Leu-Pro-His-Pro-Trp-Phe-Cys(Ser)-COOH | 0.92 | 85 | – | –
